Experimental data taken from PubChem BioAssay AID1347076 (National Center for Advancing Translational Sciences (NCATS), 2019).
Screen size: about 400,000 compounds; about 13,000 (3.2%) were called active. This list was built around the results that the source calls inconclusive (neither active nor inactive); the mix of calls is not that of the screen. Calls follow the shape of the dose curve; as a rule, active = well fitted cell-killing curve with a large enough effect; inconclusive = small, poorly fitted or top-dose-only effect, or effect the other way; inactive = flat fitted curve, though single readings scatter. Where the call is inconclusive, the potency comes from a doubtful curve fit.

Experiment: qHTS assay for MDR1-selective chemotherapeutics: Primary screen using the drug-selected MDR subline cells KB-V1; also: nearly all actives have a fitted effect of over 60% in size
Conditions: KB-V1 MDR cells viability, CellTiter-Glo, 72 h; activity change, negative = cytotoxicity: at 46.1 µM (top of the series)
How it was run: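 Cytotoxicity toward P-gp-expressing KB-V1 cells was determined as loss of CellTiter-Glo luminescence after 72 h at 37 degrees C. Compounds were tested in quantitative HTS format across a concentration range, with curves fitted to normalized data.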
% is scaled to controls: 0 for no effect and ±100 for the full control effect; potency is read from the fitted curve at half-maximal effect.

Structure (SMILES) | Potency | activity change, negative = cytotoxicity
O=C(C#Cc1ccccc1)NCc1ccccc1F | inconclusive: 7.31 µM [rising, partial curve, poor fit] | 
Cc1sc(NC(=O)Cn2c(=O)oc3ccccc32)nc1-c1ccc(Cl)cc1 |  | inactive: -11%
CCOc1ccc(C(=O)NC(C(=O)NCCc2ccc(OC(F)F)cc2)C(C)C)cc1 (stereo not given) |  | inactive: -4.73%
CCOC(=O)N/N=C/c1ccc(N(CC)CC)cc1O | inconclusive: 2.59 µM [cytotoxic, full curve] | 
CCC(C)c1ccccc1OCC(=O)NN1C(=O)c2ccccc2C1=O (stereo not given) | inconclusive: 20.6 µM [rising, partial curve] | 
NC(=O)CSc1nc2c(c(=O)n1-c1ccccc1)C1(CCCCC1)Cc1ccccc1-2 | inconclusive: 23.1 µM [cytotoxic, single point] | 
Cn1nc(C(=O)NCCc2ccc(S(N)(=O)=O)cc2)c2c1-c1ccccc1S(=O)(=O)C2 | inconclusive: 20.6 µM [rising, single point] | 
CCOc1cc(S(=O)(=O)NCc2ccccc2)ccc1Br |  | inactive: 4.35%
Cc1ccc(C)c(OCc2ccc(C(=O)Nc3ccc([N+](=O)[O-])cn3)o2)c1 | inconclusive: 32.6 µM [cytotoxic, partial curve, poor fit] | 
C(=C\c1ccccc1)/CN1CCN(C(c2nnnn2C2CCCCC2)C2CC2)CC1 (stereo not given) | active: 18.4 µM | 
CN1CCN(C(=O)Cn2c(C(F)(F)F)nc3ccccc32)CC1 | inconclusive: 20.6 µM [rising, single point] | 
COc1ccc(-n2c(SCC(=O)N3CCC(C)CC3)nc3c([nH]c4ccccc43)c2=O)cc1 | inconclusive: 16.4 µM [rising, single point] | 
COCCCNC(=O)c1cc(-c2cccnc2)nc2ccccc12 | inactive | 
CC12CCC(C(=O)N(CC(O)CN3CCN(Cc4ccccc4)CC3)C1=O)C2(C)C (stereo not given) | inconclusive: 3.26 µM [rising, partial curve, poor fit] | 
Cc1cc(C)n(-c2ccc(C(=O)OCC(=O)NCc3ccc(F)cc3)cc2)n1 | inconclusive: 29.1 µM [rising, single point] | 
CCOc1ccccc1-c1nnc(SCc2ccc(Cl)cc2)o1 | inconclusive: 18.4 µM [cytotoxic, partial curve, poor fit] | 
O=C(NC1CCCCCC1)c1cccnc1Sc1ccccc1 | active: 23.1 µM | 
CCOc1cccc(C2c3c(oc4ccccc4c3=O)C(=O)N2c2nc(C)c(C(=O)OC)s2)c1 (stereo not given) |  | inactive: 0.318%
CCOC(=O)c1c(C)noc1CP(=O)(c1ccccc1)c1ccccc1 |  | inconclusive: -37.8% [cytotoxic]
O=C(CSc1nnc(-c2c[nH]c3ccccc23)o1)N1CCCCC1 | inconclusive: 8.2 µM [cytotoxic, partial curve] | 
COc1ccc(C)cc1N(CC(=O)N1CCCC1)S(=O)(=O)c1ccccc1 |  | inactive: -5.7%
Cc1cc(C)cc(-n2nnc(C(=O)NCc3ccc4c(c3)OCO4)c2N)c1 | active: 8.2 µM | 
CCOC(=O)CNC(=O)CSc1nc(NCc2ccccc2)nc(N(C)C)n1 | inconclusive: 3.66 µM [cytotoxic, full curve] | 

Structure (SMILES) | Potency | activity change, negative = cytotoxicity
COc1cccc2sc(N3CCN(C(=O)C4COc5ccccc5O4)CC3)nc12 (stereo not given) | inconclusive: 8.2 µM [cytotoxic, partial curve] | 
N#Cc1ccc(CN2CCN(C(=O)CNC(=O)Cc3cccc4ccccc34)CC2)cc1 | inconclusive: 16.4 µM [cytotoxic, single point] | 
COc1ccc(C(=O)NCC(c2ccccc2)c2ccccc2)cc1S(=O)(=O)N1CCOCC1 | active: 8.2 µM | 
COc1cc(/C=C(/NC(=O)c2ccccc2)C(=O)N2CCOCC2)c([N+](=O)[O-])cc1OC |  | inactive: 21.1%
CC1CCN(C(=O)c2ccccc2NS(=O)(=O)c2ccccc2)CC1 | inconclusive: 23.1 µM [cytotoxic, single point] | 
O=C(CCN1C(=O)/C(=C/c2ccccc2Cl)SC1=S)N1CCCC1 | inconclusive: 29.1 µM [cytotoxic, single point] | 
Clc1ccccc1Cn1nnc(-c2cccs2)n1 | inconclusive: 32.6 µM [cytotoxic, single point] | 
CC(C)CCNC(=O)C1CCN(c2nc3ccccc3o2)CC1 | active: 13 µM | 
Nc1[nH]c(=S)nc2nnsc12 |  | inactive: 0%
Cc1ccc(OCCn2c(-c3ccc(Cl)cc3)nc3ccccc3c2=O)c(C)c1 | inconclusive: 29.1 µM [rising, single point] | 
CC(C)CN(C(=O)COC(=O)CSc1ccc([N+](=O)[O-])cc1)C1CCS(=O)(=O)C1 (stereo not given) | inconclusive: 16.4 µM [rising, single point] | 
COc1ccc(N2CCN(CCCn3cnc4c(OC)ncnc43)CC2)cc1 |  | inactive: 15.6%
COc1ccc(NC(=O)CC2C(=O)N(c3cccc(OC)c3)C(=O)N2C2CCCCC2)cc1 (stereo not given) | active: 16.4 µM | 
Cc1ccc(CNC(=O)C2CC(c3ccccc3[N+](=O)[O-])=NO2)cc1 (stereo not given) | inconclusive: 18.4 µM [rising, single point] | 
N#CCCN(Cc1ccccc1)C(C(=O)NC1CCCCC1)c1cc2ccccc2o1 (stereo not given) | inconclusive: 23.1 µM [cytotoxic, single point] | 
Cn1cnc([N+](=O)[O-])c1S(=O)(=O)Nc1ccccc1 | inconclusive: 29.1 µM [cytotoxic, single point] | 
CC1(c2nnnn2Cc2ccccc2)CCC(=O)N1CC(F)(F)F (stereo not given) |  | inactive: -4.23%
COc1ccc(CC(=O)NCc2n[nH]c(=S)n2-c2ccccc2)cc1 | inconclusive: 29.1 µM [rising, single point] | 
Cc1ccc(S(=O)(=O)NCCc2cc3ccc(C)c(C)c3[nH]c2=O)cc1 | inconclusive: 11.6 µM [cytotoxic, single point] | 
Cc1ccc(-n2c(CCC(=O)O)ccc2-c2cccs2)cc1 | inconclusive: 0.206 µM [rising, full curve, poor fit] | 
CC(C)C1C(=O)N(Cc2cn(CCC3OCCO3)nn2)CCS(=O)(=O)N1Cc1ccc(-c2ccc(Cl)cc2)cc1 (stereo not given) | active: 16.4 µM | 
CN(C)CCCN(C(=O)/C=C/c1cccs1)c1nc2c(F)cccc2s1 | inconclusive: 23.1 µM [cytotoxic, partial curve, poor fit] | 

By substructure, those above containing a cyano group (two)
Structure (SMILES) | Potency | activity change, negative = cytotoxicity
N#Cc1ccc(CN2CCN(C(=O)CNC(=O)Cc3cccc4ccccc34)CC2)cc1 | inconclusive: 16.4 µM [cytotoxic, single point] | 
N#CCCN(Cc1ccccc1)C(C(=O)NC1CCCCC1)c1cc2ccccc2o1 (stereo not given) | inconclusive: 23.1 µM [cytotoxic, single point] | 
